Measurements reported in PubChem BioAssay AID1508588 (Peter MacCallum Cancer Centre, 2020)
Aim: 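Genome-wide search for knock-downs that heighten vemurafenib action in melanoma cells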 (primary screen). Cells: human WM266.4 melanoma cells (BRAF V600 mutant). Reagent: siRNA pool against human genes, 40 nM. Time to read-out: 96 h from transfection to read-out. Treatment: vemurafenib 300 nM (about IC25), added 48 h after transfection, for 48 h; comparison arm got DMSO vehicle only. Detection: 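Ratios to non-targeting siRNA for cell gain, counted as DAPI nuclei after minus before drug and averaged over two replicates, and for absorbance-read medium lactate per cell; both binned into fold-change classes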. Direction: cell gain with vemurafenib: higher = more cell gain than with non-targeting siRNA; lactate per cell with vemurafenib: higher = more lactate made per cell. Call rule: 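Enhancement is called by pairing each knock-down's vehicle-arm and drug-arm fold-change classes for viability or glycolysis; which class combinations qualify is not given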. Calls: active = enhances vemurafenib effect; inactive = no enhancement seen.
The whole screen tested about 18,000 reagents; shown is a random part of them. 790 of them (4.4%) were called active. 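Calls rest on a combination of fold-change classes in drug and vehicle arms, not all shown here.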 The numbers tell different reagents against one gene apart. Some reagents were tested in more than one well and are listed for each. Reagent sequences are not shown.

| cell gain with vemurafenib | lactate per cell with vemurafenib | activity call | Target gene | reagent |
| --- | --- | --- | --- | --- |
| 0.37 | 1.28 | inactive | OR8J3 (olfactory receptor family 8 subfamily J member 3) | 1 |
| 0.59 | 1.01 | inactive | TRMT1 (tRNA methyltransferase 1) | 1 |
| 0.37 | 0.22 | inactive | PARM1 (prostate androgen-regulated mucin-like protein 1) | 1 |
| 0.85 | 0.41 | inactive | PRKN (parkin RBR E3 ubiquitin protein ligase) | 1 |
| 0.63 | 1.35 | inactive | PRKN (parkin RBR E3 ubiquitin protein ligase) | 1 |
| 0.83 | 0.88 | inactive | SEC24B (SEC24 homolog B, COPII component) | 1 |
| -0.02 | 1.15 | inactive | GHSR (growth hormone secretagogue receptor) | 1 |
| 0.57 | 0.88 | inactive | NFIL3 (nuclear factor, interleukin 3 regulated) | 1 |
| 0.73 | 0.68 | inactive | NPPC (natriuretic peptide C) | 1 |
| 0.32 | 0.38 | inactive | IDH3B | 1 |
| 0.25 | 1.11 | inactive | CLEC17A (C-type lectin domain containing 17A) | 1 |
| 0.42 | 1.31 | inactive | NFYC (nuclear transcription factor Y subunit gamma) | 1 |
| 0.93 | 1.52 | inactive | ANKRD20A2P (ankyrin repeat domain 20 family member A2, pseudogene) | 1 |
| 0.96 | 0.82 | inactive | ARHGEF37 (Rho guanine nucleotide exchange factor 37) | 1 |
| 0.8 | 0.5 | inactive | PORCN (porcupine O-acyltransferase) | 1 |
| 0.5 | 1.46 | inactive | NLRP2 (NLR family pyrin domain containing 2) | 1 |
| 0.78 | 1.55 | inactive | PLAAT1 (phospholipase A and acyltransferase 1) | 1 |
| 0.2 | 1.12 | inactive | ANKRD37 (ankyrin repeat domain 37) | 1 |
| 0.72 | 0.66 | inactive | OR1M1 (olfactory receptor family 1 subfamily M member 1) | 1 |
| 0.37 | 0.42 | active | MLEC (malectin) | 1 |
| 0.87 | 1.4 | inactive | NCBP3 (nuclear cap binding subunit 3) | 1 |
| 0.72 | 0.54 | inactive | TMEM202 (transmembrane protein 202) | 1 |
| 0.3 | 1.13 | inactive | LRRC4 (leucine rich repeat containing 4) | 1 |
| 0.74 | 0.55 | inactive | UNCX (UNC homeobox) | 1 |
| -0.02 | 2.52 | inactive | CNOT1 (CCR4-NOT transcription complex subunit 1) | 1 |
| 0.97 | 0.5 | inactive | EPS8 (EGFR pathway substrate 8, signaling adaptor) | 1 |
| 0.45 | 0.52 | inactive | ATF2 (activating transcription factor 2) | 1 |
| -0.03 | 1.34 | inactive | SNAI3 (snail family transcriptional repressor 3) | 1 |
| 0.48 | 1.46 | inactive | GRHPR (glyoxylate and hydroxypyruvate reductase) | 1 |
| 0.61 | 0.78 | inactive | PTGR1 (prostaglandin reductase 1) | 1 |
| 0.83 | 0.4 | inactive | PCDHAC1 (protocadherin alpha subfamily C, 1) | 1 |
| 0.7 | 0.69 | inactive | MESP2 (mesoderm posterior bHLH transcription factor 2) | 1 |
| 1.01 | 0.81 | inactive | UNKL (unk like zinc finger) | 1 |
| 0.61 | 0.72 | inactive | GIP (gastric inhibitory polypeptide) | 1 |
| 0.64 | 0.65 | inactive | POLR2K (RNA polymerase II, I and III subunit K) | 1 |
| 0.77 | 0.58 | inactive | CMTM6 (CKLF like MARVEL transmembrane domain containing 6) | 1 |
| 0.06 | 1.2 | inactive | COMP (cartilage oligomeric matrix protein) | 1 |
| 1 | 0.86 | inactive | HES1 (hes family bHLH transcription factor 1) | 1 |
| 1.09 | 0.77 | inactive | TNIP1 (TNFAIP3 interacting protein 1) | 1 |
| 0.27 | 1.82 | inactive | RAB1A (RAB1A, member RAS oncogene family) | 1 |
| 0.88 | 0.78 | inactive | GPR142 (G protein-coupled receptor 142) | 1 |
| 0.51 | 0.9 | inactive | SSX1 (SSX family member 1) | 1 |
| 0.56 | 1.15 | inactive | GPRC5D (G protein-coupled receptor class C group 5 member D) | 1 |
| -0.11 | 2.13 | inactive | MCU (mitochondrial calcium uniporter) | 1 |
| 0.98 | 0.5 | inactive | RFX6 (regulatory factor X6) | 1 |
| 0.5 | 0.93 | inactive | ARMC8 (armadillo repeat containing 8) | 1 |
| 0.43 | 0.84 | inactive | SPDYA (speedy/RINGO cell cycle regulator family member A) | 1 |
| 0.5 | 1.46 | inactive | LILRA2 (leukocyte immunoglobulin like receptor A2) | 1 |
| 0.33 | 0.83 | inactive | ZNF611 (zinc finger protein 611) | 1 |
| 0.45 | 0.52 | inactive | FAM53C (family with sequence similarity 53 member C) | 1 |
| 0.77 | 1.38 | inactive | TMEM123 (transmembrane protein 123) | 1 |
| 0 | 1.12 | inactive | HCP5 (HLA complex P5) | 1 |
| 0.64 | 1.07 | inactive | RRP7A (ribosomal RNA processing 7 homolog A) | 1 |
| 0.74 | 1.16 | inactive | LGI3 (leucine rich repeat LGI family member 3) | 1 |
| 0.77 | 0.94 | inactive | TBC1D4 (TBC1 domain family member 4) | 1 |
| 1.01 | 0.58 | inactive | AVIL (advillin) | 1 |
| 0.25 | 1.02 | inactive | SLC37A3 | 1 |
| 1.13 | 0.67 | inactive | BMI1 (BMI1 proto-oncogene, polycomb ring finger) | 1 |
| 0.52 | 0.82 | inactive | SMARCA4 | 1 |
| 0.2 | 0.87 | inactive | SORCS2 (sortilin related VPS10 domain containing receptor 2) | 1 |
| 0.27 | 1.06 | inactive | SLC22A3 | 1 |
| 0.34 | 1.86 | inactive | SLC38A11 | 1 |
| 1.09 | 0.69 | inactive | OMD (osteomodulin) | 1 |
| 0.61 | 0.66 | inactive | CYRIA (CYFIP related Rac1 interactor A) | 1 |
| 0.28 | 1.88 | inactive | HCAR2 (hydroxycarboxylic acid receptor 2) | 1 |
| 0.59 | 1.49 | inactive | BMP4 (bone morphogenetic protein 4) | 1 |
| 0.12 | 1.97 | inactive | SALL1 (spalt like transcription factor 1) | 1 |
| 0.35 | 1.09 | inactive | ITGB6 (integrin subunit beta 6) | 1 |
| 0.45 | 1.55 | inactive | UBXN8 (UBX domain protein 8) | 1 |
| 0.46 | 0.96 | inactive | HMGN2P46 | 1 |
| 0.71 | 0.26 | inactive | PRMT8 (protein arginine methyltransferase 8) | 1 |
| -0.05 | 2.16 | inactive | RAB4B (RAB4B, member RAS oncogene family) | 1 |
| 1.04 | 0.61 | inactive | MEF2A (myocyte enhancer factor 2A) | 1 |
| 0.55 | 1.81 | inactive | SH2B3 (SH2B adaptor protein 3) | 1 |
| 0.71 | 0.55 | inactive | RFLNB (refilin B) | 1 |
| 0.85 | 0.57 | inactive | MMD (monocyte to macrophage differentiation associated) | 1 |
| 0.86 | 0.57 | inactive | SEMA4A (semaphorin 4A) | 1 |
| 0.46 | 0.62 | inactive | IFT80 (intraflagellar transport 80) | 1 |
| 0.58 | 0.88 | inactive | GLS2 (glutaminase 2) | 1 |
| 0.41 | 1.01 | inactive | KBTBD7 (kelch repeat and BTB domain containing 7) | 1 |
| 0.76 | 0.26 | inactive | CYP4Z1 (cytochrome P450 family 4 subfamily Z member 1) | 1 |
| 0.61 | 0.62 | inactive | OLFM4 (olfactomedin 4) | 1 |
| 0.43 | 1.55 | inactive | GUCY1A1 (guanylate cyclase 1 soluble subunit alpha 1) | 1 |
| 0.32 | 1.62 | inactive | SRP72 (signal recognition particle 72) | 1 |
| 0.6 | 1.05 | inactive | IQCF3 (IQ motif containing F3) | 1 |
| 0.63 | 0.52 | inactive | TAF1B | 1 |
| 0.14 | 0.89 | inactive | UBE2Z (ubiquitin conjugating enzyme E2 Z) | 1 |
| 0.84 | 1.14 | inactive | CIAO2A (cytosolic iron-sulfur assembly component 2A) | 1 |
| 0 | 1.25 | inactive | POLR2A (RNA polymerase II subunit A) | 1 |
| 0.73 | 0.7 | inactive | GLYCTK (glycerate kinase) | 1 |
| 0.57 | 0.78 | inactive | ANPEP (alanyl aminopeptidase, membrane) | 1 |
| 0.59 | 1.31 | inactive | MRPL2 (mitochondrial ribosomal protein L2) | 1 |
| 0.63 | 1.38 | inactive | STAB1 (stabilin 1) | 1 |
| 0.71 | 0.5 | inactive | ARHGEF18 (Rho/Rac guanine nucleotide exchange factor 18) | 1 |
| 1.01 | 0.7 | inactive | CYP4F2 (cytochrome P450 family 4 subfamily F member 2) | 1 |
| -0.1 | 0.73 | inactive | SPANXB1 (SPANX family member B1) | 1 |
| -0.02 | 1.29 | inactive | SPANXB1 (SPANX family member B1) | 2 |
| 0.38 | 0.24 | inactive | PIPOX (pipecolic acid and sarcosine oxidase) | 1 |
| 0.86 | 0.68 | inactive | STRN4 (striatin 4) | 1 |
| 0.95 | 0.44 | inactive | FITM2 (fat storage inducing transmembrane protein 2) | 1 |
| 0.48 | 0.68 | inactive | NMT2 (N-myristoyltransferase 2) | 1 |
| 0.05 | 1.15 | inactive | FBXO9 (F-box protein 9) | 1 |
| 1 | 0.66 | inactive | R3HCC1L (R3H domain and coiled-coil containing 1 like) | 1 |
| 0.82 | 1.03 | inactive | RUSF1 (RUS family member 1) | 1 |
| 0.64 | 1.17 | inactive | ERICH1 (glutamate rich 1) | 1 |
| 0.35 | 2.36 | inactive | TBX20 (T-box transcription factor 20) | 1 |
| 0.56 | 1.56 | inactive | KBTBD3 (kelch repeat and BTB domain containing 3) | 1 |

A portion of the results above, as a working copy:
| cell gain with vemurafenib | lactate per cell with vemurafenib | activity call | Target gene | reagent |
| --- | --- | --- | --- | --- |
| 0.59 | 1.49 | inactive | BMP4 (bone morphogenetic protein 4) | 1 |
| 0.12 | 1.97 | inactive | SALL1 (spalt like transcription factor 1) | 1 |
| 0.35 | 1.09 | inactive | ITGB6 (integrin subunit beta 6) | 1 |
| 0.45 | 1.55 | inactive | UBXN8 (UBX domain protein 8) | 1 |
| 0.46 | 0.96 | inactive | HMGN2P46 | 1 |
| 0.71 | 0.26 | inactive | PRMT8 (protein arginine methyltransferase 8) | 1 |
| -0.05 | 2.16 | inactive | RAB4B (RAB4B, member RAS oncogene family) | 1 |
| 1.04 | 0.61 | inactive | MEF2A (myocyte enhancer factor 2A) | 1 |
| 0.55 | 1.81 | inactive | SH2B3 (SH2B adaptor protein 3) | 1 |
| 0.71 | 0.55 | inactive | RFLNB (refilin B) | 1 |
| 0.85 | 0.57 | inactive | MMD (monocyte to macrophage differentiation associated) | 1 |
| 0.86 | 0.57 | inactive | SEMA4A (semaphorin 4A) | 1 |
| 0.46 | 0.62 | inactive | IFT80 (intraflagellar transport 80) | 1 |
| 0.58 | 0.88 | inactive | GLS2 (glutaminase 2) | 1 |
